# Measured values reported in the supplement of paper PMC10849652.
# Sequences of proteins named here, by UniProt entry; tags and fusion partners are left off. A change or cut given only in a name is not applied to a line headed by its entry.
# UniProt P07737, whole entry, looked up: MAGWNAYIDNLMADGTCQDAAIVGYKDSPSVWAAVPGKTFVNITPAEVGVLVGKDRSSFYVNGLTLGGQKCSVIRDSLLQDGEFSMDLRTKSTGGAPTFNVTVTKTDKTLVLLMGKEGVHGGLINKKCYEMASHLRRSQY
# UniProt Q5VU43: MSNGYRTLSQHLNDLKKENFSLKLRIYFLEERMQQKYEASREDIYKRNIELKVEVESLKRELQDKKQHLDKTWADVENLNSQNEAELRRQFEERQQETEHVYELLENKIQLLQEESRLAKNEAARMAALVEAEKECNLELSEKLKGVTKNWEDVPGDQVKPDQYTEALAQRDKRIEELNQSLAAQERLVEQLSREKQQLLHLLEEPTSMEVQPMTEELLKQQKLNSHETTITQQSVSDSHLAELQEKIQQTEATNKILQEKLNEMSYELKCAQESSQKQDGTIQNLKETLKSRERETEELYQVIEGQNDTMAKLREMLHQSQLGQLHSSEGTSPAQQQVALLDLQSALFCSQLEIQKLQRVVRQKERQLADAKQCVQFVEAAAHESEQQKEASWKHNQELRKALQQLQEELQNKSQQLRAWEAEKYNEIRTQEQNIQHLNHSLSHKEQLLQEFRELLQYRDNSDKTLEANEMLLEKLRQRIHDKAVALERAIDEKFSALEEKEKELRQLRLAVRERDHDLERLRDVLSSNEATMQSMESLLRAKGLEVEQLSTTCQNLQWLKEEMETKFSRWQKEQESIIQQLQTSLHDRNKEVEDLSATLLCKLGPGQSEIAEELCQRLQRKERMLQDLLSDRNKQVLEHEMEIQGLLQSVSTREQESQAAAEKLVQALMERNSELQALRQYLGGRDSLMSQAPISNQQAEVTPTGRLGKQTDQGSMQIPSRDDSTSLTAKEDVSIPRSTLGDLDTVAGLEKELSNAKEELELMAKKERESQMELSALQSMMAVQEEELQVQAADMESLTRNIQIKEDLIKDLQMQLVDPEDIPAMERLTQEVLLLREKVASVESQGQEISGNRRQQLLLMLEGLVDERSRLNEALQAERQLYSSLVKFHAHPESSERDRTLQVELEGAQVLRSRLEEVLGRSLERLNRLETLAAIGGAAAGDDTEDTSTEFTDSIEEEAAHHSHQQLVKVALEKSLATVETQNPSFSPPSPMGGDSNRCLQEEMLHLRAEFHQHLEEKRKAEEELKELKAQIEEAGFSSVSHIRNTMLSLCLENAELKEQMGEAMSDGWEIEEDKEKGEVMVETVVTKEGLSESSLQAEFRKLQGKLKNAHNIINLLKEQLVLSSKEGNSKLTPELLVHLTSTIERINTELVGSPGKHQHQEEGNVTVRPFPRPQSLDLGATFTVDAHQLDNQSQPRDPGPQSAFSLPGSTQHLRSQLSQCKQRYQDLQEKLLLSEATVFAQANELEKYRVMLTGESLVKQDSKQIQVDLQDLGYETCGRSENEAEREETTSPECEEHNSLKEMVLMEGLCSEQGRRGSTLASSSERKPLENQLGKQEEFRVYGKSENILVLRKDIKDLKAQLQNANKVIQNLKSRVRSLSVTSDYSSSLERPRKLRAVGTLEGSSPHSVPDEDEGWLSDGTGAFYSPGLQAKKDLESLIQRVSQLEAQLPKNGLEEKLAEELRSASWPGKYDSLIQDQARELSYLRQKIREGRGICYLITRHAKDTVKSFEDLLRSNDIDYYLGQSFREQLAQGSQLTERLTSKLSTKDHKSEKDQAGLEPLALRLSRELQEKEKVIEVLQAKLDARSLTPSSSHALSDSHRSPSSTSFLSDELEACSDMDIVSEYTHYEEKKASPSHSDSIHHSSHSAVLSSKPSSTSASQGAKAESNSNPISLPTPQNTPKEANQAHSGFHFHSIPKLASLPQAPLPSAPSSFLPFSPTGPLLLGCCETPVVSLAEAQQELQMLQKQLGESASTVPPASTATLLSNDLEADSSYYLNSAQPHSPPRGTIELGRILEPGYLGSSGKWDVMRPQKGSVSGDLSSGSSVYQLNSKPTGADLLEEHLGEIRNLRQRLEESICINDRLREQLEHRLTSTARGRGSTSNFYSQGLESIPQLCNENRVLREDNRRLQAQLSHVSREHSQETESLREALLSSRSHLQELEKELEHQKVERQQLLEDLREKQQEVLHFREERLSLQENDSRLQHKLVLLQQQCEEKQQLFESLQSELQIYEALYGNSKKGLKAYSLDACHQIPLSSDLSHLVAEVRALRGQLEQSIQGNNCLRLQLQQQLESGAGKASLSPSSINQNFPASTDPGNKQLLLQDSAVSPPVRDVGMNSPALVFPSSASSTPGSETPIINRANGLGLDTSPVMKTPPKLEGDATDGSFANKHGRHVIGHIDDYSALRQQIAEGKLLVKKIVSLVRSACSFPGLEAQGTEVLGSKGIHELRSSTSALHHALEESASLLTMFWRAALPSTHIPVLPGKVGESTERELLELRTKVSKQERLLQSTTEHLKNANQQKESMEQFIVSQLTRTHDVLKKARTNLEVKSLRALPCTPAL
# UniProt Q9H0N5: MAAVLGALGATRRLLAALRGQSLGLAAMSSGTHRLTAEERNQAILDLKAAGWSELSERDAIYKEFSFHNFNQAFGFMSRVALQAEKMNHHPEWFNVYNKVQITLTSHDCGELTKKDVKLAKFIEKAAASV
# UniProt Q9UKK3: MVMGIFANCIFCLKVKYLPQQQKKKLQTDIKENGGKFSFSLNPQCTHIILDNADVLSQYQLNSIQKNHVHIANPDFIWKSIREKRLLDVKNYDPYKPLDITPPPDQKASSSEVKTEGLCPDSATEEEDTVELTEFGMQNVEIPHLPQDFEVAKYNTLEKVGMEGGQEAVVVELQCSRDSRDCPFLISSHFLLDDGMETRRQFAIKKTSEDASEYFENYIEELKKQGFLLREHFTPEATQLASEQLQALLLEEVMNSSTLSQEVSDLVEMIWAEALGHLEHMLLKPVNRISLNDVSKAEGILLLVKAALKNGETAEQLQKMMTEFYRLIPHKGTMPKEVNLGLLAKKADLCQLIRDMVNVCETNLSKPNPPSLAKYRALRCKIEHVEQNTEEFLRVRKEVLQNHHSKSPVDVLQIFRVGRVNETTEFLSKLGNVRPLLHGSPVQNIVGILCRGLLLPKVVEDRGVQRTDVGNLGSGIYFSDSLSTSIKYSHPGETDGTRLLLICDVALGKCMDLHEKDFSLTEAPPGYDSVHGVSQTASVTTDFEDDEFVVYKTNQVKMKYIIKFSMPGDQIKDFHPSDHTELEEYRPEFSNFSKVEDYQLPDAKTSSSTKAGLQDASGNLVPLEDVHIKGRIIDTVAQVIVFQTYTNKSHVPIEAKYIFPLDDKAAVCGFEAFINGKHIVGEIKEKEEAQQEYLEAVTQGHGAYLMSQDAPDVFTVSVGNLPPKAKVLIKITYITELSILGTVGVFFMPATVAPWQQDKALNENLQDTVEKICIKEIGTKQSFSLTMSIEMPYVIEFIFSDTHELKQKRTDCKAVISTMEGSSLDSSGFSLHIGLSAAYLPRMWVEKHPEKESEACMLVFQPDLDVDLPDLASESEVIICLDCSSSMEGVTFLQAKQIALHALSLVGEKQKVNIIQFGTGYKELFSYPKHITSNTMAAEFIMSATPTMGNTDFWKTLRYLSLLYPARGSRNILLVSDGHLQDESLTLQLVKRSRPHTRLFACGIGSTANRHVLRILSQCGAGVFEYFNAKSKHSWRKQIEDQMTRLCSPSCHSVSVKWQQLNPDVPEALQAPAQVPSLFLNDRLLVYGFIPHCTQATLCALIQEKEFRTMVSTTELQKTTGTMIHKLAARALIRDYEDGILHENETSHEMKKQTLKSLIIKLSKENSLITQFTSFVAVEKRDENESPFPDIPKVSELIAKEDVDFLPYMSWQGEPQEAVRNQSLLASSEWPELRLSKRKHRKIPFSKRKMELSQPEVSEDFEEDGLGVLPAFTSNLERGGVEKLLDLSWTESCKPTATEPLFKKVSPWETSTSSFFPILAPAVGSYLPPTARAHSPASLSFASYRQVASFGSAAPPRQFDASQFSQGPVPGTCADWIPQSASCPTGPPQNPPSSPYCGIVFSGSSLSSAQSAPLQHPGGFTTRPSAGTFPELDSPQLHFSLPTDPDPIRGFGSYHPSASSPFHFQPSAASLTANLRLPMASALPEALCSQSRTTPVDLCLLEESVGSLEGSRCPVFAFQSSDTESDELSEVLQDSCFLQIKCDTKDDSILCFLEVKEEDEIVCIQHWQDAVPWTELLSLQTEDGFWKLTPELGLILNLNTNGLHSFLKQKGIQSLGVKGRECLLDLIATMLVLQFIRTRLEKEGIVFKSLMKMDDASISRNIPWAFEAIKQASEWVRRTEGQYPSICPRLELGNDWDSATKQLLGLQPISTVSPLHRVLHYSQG
# UniProt P11498: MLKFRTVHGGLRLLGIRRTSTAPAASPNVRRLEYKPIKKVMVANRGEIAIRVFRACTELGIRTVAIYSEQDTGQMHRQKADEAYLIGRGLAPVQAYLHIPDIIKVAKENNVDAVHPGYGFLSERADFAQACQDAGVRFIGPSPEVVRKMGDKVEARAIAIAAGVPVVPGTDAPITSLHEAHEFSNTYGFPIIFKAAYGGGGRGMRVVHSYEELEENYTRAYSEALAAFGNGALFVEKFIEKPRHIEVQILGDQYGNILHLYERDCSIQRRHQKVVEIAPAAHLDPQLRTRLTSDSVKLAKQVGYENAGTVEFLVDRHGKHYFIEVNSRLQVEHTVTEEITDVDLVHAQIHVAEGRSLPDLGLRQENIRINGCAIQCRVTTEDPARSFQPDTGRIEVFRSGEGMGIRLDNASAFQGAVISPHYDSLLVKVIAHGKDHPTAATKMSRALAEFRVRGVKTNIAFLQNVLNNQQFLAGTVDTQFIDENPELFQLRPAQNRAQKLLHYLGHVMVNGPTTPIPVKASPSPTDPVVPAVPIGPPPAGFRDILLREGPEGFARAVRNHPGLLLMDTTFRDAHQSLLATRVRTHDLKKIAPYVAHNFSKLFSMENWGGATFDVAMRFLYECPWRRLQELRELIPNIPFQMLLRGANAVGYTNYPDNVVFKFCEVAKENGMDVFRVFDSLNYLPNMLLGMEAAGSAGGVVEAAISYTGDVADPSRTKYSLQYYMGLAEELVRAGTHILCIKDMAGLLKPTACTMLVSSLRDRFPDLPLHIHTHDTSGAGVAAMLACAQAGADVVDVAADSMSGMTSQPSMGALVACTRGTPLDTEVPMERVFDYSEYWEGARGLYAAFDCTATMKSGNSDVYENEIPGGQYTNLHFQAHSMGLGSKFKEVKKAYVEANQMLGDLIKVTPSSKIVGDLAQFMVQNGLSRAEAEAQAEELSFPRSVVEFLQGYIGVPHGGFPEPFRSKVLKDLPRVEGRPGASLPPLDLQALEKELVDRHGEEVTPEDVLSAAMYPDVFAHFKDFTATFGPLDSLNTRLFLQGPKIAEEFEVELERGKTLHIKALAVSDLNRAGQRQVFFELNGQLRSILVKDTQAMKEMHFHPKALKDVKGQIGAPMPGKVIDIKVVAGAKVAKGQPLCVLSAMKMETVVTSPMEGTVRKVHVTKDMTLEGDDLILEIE
# UniProt Q9UHG3: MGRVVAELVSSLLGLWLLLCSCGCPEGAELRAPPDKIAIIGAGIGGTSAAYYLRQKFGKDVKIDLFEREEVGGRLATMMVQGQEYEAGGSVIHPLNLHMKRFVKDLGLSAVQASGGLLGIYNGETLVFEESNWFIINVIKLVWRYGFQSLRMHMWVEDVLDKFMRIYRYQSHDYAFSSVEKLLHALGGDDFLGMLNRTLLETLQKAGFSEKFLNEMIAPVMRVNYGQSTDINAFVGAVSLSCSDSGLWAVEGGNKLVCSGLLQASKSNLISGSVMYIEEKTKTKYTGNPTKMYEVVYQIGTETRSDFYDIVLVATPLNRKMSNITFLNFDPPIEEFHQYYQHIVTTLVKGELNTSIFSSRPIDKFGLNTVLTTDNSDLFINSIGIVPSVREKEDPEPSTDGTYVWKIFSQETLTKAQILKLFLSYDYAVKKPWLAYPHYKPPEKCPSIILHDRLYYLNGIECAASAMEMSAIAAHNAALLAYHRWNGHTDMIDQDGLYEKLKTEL
# UniProt Q9NQP4, whole entry, looked up: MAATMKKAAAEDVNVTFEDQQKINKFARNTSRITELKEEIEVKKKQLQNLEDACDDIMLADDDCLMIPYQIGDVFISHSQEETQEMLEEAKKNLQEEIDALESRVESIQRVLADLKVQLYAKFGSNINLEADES
# UniProt P49585: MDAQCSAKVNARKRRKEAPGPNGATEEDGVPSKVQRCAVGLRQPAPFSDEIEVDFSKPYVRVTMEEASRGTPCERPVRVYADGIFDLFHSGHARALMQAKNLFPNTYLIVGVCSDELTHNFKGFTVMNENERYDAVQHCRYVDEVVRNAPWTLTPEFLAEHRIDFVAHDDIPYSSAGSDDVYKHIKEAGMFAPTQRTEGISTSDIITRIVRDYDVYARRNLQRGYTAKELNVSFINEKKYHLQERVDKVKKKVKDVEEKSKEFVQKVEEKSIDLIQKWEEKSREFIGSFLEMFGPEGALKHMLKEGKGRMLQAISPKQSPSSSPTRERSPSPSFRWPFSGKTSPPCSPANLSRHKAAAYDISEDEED
# This is one part of the list.
# Columns and labels:
# Assay in all cases: log2 fold change, soluble protein after heating vs DMSO (PISA); higher = thermal stabilisation; K562 lysate, 10 uM; active = over 0.2 and 3.5 SD of the protein, either way, in both replicates (recomputed)
# lapatinib = compound: CS(=O)(=O)CCNCc1ccc(-c2ccc3ncnc(Nc4ccc(OCc5cccc(F)c5)c(Cl)c4)c3c2)o1 [lapatinib]
# Summary of the method: (§1)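 Quantification was by TMTpro 16plex LC-MS/MS with equalised channel sums, applied to the supernatant after 21,000xg for 90 min. Samples were crude K562 extract at 1 mg/mL protein in PBS pH 7.4 with 1 mM MgCl2, treated with 10 μM compound for 30 min, heated for 3 min across 48°C-58°C, pooled and brought to 0.5% NP-40 at 4°C. Values are log-two fold changes in thermal stability relative to solvent controls, from duplicates.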
# pictilisib = compound: CS(=O)(=O)N1CCN(Cc2cc3nc(-c4cccc5[nH]ncc45)nc(N4CCOCC4)c3s2)CC1 [pictilisib]
# Summary of the method: as §1
# crizotinib = compound: C[C@@H](Oc1cc(-c2cnn(C3CCNCC3)c2)cnc1N)c1c(Cl)ccc(F)c1Cl [crizotinib]
# Summary of the method: as §1
# [1] = compound: C[C@H](C1=CC=C(C=C1)C(=O)NC2=C3C=CNC3=NC=C2)N
# Summary of the method: as §1
# duvelisib = compound: C[C@H](Nc1ncnc2nc[nH]c12)c1cc2cccc(Cl)c2c(=O)n1-c1ccccc1 [duvelisib]
# Summary of the method: as §1
# gandotinib = compound: Cc1cc(Nc2cc(CN3CCOCC3)c3nc(C)c(Cc4ccc(Cl)cc4F)n3n2)n[nH]1 [gandotinib]
# Summary of the method: as §1
# tozasertib = compound: Cc1cc(Nc2cc(N3CCN(C)CC3)nc(Sc3ccc(NC(=O)C4CC4)cc3)n2)n[nH]1 [tozasertib]
# Summary of the method: as §1
# doramapimod = compound: Cc1ccc(-n2nc(C(C)(C)C)cc2NC(=O)Nc2ccc(OCCN3CCOCC3)c3ccccc23)cc1 [doramapimod]
# Summary of the method: as §1
# bafetinib = compound: Cc1ccc(NC(=O)c2ccc(CN3CC[C@H](N(C)C)C3)c(C(F)(F)F)c2)cc1Nc1nccc(-c2cncnc2)n1 [bafetinib]
# Summary of the method: as §1
# [2] = compound: Cc1cccc(CC(=O)N2CCc3c2ccc(-c2cn(C)c4ncnc(N)c24)c3F)n1
# Summary of the method: as §1
Target,log2 fold change (lapatinib),log2 fold change (pictilisib),log2 fold change (crizotinib),log2 fold change [1],log2 fold change (duvelisib),log2 fold change (gandotinib),log2 fold change (tozasertib),log2 fold change (doramapimod),log2 fold change (bafetinib),log2 fold change [2]
PDLIM5 (UniProt Q96HC4),inactive: 0.003,inactive: -0.007,inactive: 0.039,inactive: -0.127,inactive: -0.003,inactive: 0.106,inactive: -0.021,inactive: -0.026,inactive: 0.01,inactive: 0.096
PDZD8 (UniProt Q8NEN9),inactive: -0.021,inactive: -0.151,inactive: -0.018,inactive: -0.035,inactive: 0.015,inactive: -0.055,inactive: -0.04,inactive: 0.022,inactive: -0.075,inactive: 0.034
PFN1 (UniProt P07737),inactive: 0.01,inactive: -0.003,inactive: 0.016,inactive: -0.006,inactive: 0.009,inactive: 0.007,inactive: -0.004,inactive: 0.007,inactive: 0,inactive: 0.007
PCK2 (UniProt Q16822),inactive: 0.007,inactive: -0.02,inactive: -0.029,inactive: -0.016,inactive: 0.014,inactive: -0.016,inactive: 0.002,inactive: 0.011,inactive: -0.017,inactive: 0.035
PDE4DIP isoform 4 (UniProt Q5VU43),inactive: -0.003,inactive: -0.076,inactive: -0.048,inactive: -0.069,inactive: -0.017,inactive: 0.116,inactive: -0.005,inactive: 0,inactive: -0.073,inactive: 0.05
PCBD2 (UniProt Q9H0N5),inactive: -0.014,inactive: -0.009,inactive: -0.051,active: -0.228,inactive: 0.028,inactive: 0.141,inactive: 0.031,inactive: 0.008,inactive: -0.063,inactive: 0.096
PFDN6 (UniProt O15212),inactive: -0.021,inactive: -0.109,inactive: 0.018,inactive: 0.056,inactive: 0.017,inactive: -0.059,inactive: 0.016,inactive: 0.017,inactive: 0.013,inactive: -0.14
PARP4 (UniProt Q9UKK3),inactive: 0.153,inactive: -0.014,inactive: -0.053,inactive: 0.026,inactive: -0.08,inactive: -0.034,inactive: -0.189,inactive: -0.044,inactive: -0.085,inactive: 0.042
PASK (UniProt Q96RG2),inactive: 0.003,inactive: -0.011,inactive: -0.092,inactive: 0.093,inactive: -0.014,inactive: -0.063,inactive: -0.031,inactive: 0.027,inactive: -0.035,inactive: -0.038
PCBP1 (UniProt Q15365),inactive: -0.003,inactive: -0.003,inactive: 0.02,inactive: -0.01,inactive: -0.015,inactive: 0.06,inactive: 0.025,inactive: 0.008,inactive: -0.007,inactive: 0.003
PCSK9 (UniProt Q8NBP7),inactive: 0.023,inactive: 0.008,inactive: -0.048,inactive: 0.016,inactive: 0.005,inactive: 0.001,inactive: -0.018,inactive: 0.017,inactive: -0.038,inactive: 0.11
PARP2 (UniProt Q9UGN5),inactive: -0.063,inactive: -0.006,inactive: -0.003,inactive: -0.047,inactive: 0.091,inactive: -0.059,inactive: 0.026,inactive: 0.1,inactive: -0.054,inactive: -0.033
PCBP2 isoform 8 (UniProt Q15366),inactive: 0.022,inactive: -0.013,inactive: 0.001,inactive: 0.013,inactive: 0.04,inactive: 0.029,inactive: -0.026,inactive: -0.092,inactive: 0.082,inactive: 0.036
PCBP3 (UniProt P57721),inactive: -0.031,inactive: -0.035,inactive: 0.002,inactive: -0.067,inactive: -0.014,inactive: 0.028,inactive: 0.001,inactive: 0.014,inactive: -0.03,inactive: 0.026
PFKM isoform 3 (UniProt P08237),inactive: 0.004,inactive: -0.032,inactive: -0.012,inactive: -0.031,inactive: -0.046,inactive: 0.006,inactive: -0.013,inactive: 0,inactive: -0.018,inactive: 0.023
PDLIM1 (UniProt O00151),inactive: 0.028,inactive: 0.008,inactive: 0.022,inactive: 0.038,inactive: 0.008,inactive: 0.013,inactive: -0.016,inactive: -0.03,inactive: 0.039,inactive: -0.076
PCBP2 (UniProt H3BRU6),inactive: 0.116,inactive: -0.021,inactive: -0.04,inactive: 0.044,inactive: 0.028,inactive: 0.01,inactive: -0.112,inactive: -0.119,inactive: 0.079,inactive: -0.041
PDCL3 (UniProt Q9H2J4),inactive: -0.004,inactive: -0.02,inactive: 0.054,inactive: -0.023,inactive: 0.013,inactive: 0.028,inactive: 0.003,inactive: 0,inactive: 0.022,inactive: -0.008
PEX14 (UniProt O75381),inactive: -0.018,inactive: -0.009,inactive: 0.008,inactive: -0.036,inactive: 0.002,inactive: 0.006,inactive: 0.012,inactive: 0.006,inactive: -0.042,inactive: -0.015
PC (UniProt P11498),inactive: -0.025,inactive: -0.047,inactive: -0.036,inactive: 0.037,inactive: -0.006,inactive: -0.109,inactive: 0.005,inactive: -0.01,inactive: 0.007,inactive: 0.014
PARP14 (UniProt Q460N5),inactive: -0.018,inactive: -0.057,inactive: -0.154,inactive: 0.148,inactive: -0.13,inactive: -0.123,inactive: -0.013,inactive: -0.013,inactive: -0.081,inactive: 0
PCYOX1 (UniProt Q9UHG3),inactive: -0.088,inactive: -0.025,inactive: 0.027,inactive: 0.075,inactive: -0.029,inactive: -0.024,inactive: 0.014,inactive: 0.012,inactive: 0.031,inactive: -0.033
PDLIM7 (UniProt Q9NR12),inactive: 0.011,inactive: 0.004,inactive: 0.015,inactive: -0.029,inactive: 0.021,inactive: 0.011,inactive: -0.023,inactive: -0.033,inactive: -0.05,inactive: -0.003
PFDN4 (UniProt Q9NQP4),inactive: -0.004,inactive: -0.036,inactive: -0.015,inactive: 0.045,inactive: 0.017,inactive: 0.019,inactive: -0.03,inactive: 0.039,inactive: 0.032,inactive: -0.049
PCID2 (UniProt Q5JVF3),inactive: -0.012,inactive: -0.03,inactive: -0.016,inactive: 0.039,inactive: -0.025,inactive: -0.082,inactive: 0,inactive: 0.034,inactive: -0.008,inactive: 0.035
PCYT1A (UniProt P49585),inactive: -0.007,inactive: -0.029,inactive: 0.001,inactive: 0.03,inactive: -0.01,inactive: -0.04,inactive: 0.015,inactive: 0.064,inactive: 0.029,inactive: -0.018
PBLD (UniProt P30039),inactive: -0.084,inactive: -0.1,inactive: -0.215,inactive: -0.114,inactive: -0.156,inactive: -0.105,inactive: 0.069,inactive: 0.054,inactive: 0.091,inactive: 0.128
PGGHG (UniProt Q32M88),inactive: 0.006,inactive: -0.057,inactive: -0.015,inactive: -0.058,inactive: 0.019,inactive: 0.023,inactive: -0.013,inactive: 0.025,inactive: 0.011,inactive: -0.031
PFKP (UniProt Q01813),inactive: -0.011,inactive: -0.014,inactive: 0.014,inactive: 0.033,inactive: -0.02,inactive: -0.034,inactive: -0.012,inactive: -0.015,inactive: 0.005,inactive: -0.012
PCNT (UniProt O95613),inactive: -0.016,inactive: -0.012,inactive: -0.04,inactive: -0.15,inactive: -0.005,inactive: 0.113,inactive: 0.034,inactive: 0.04,inactive: -0.039,inactive: 0.118

# A portion from the list above, for reference:
Target,log2 fold change (lapatinib),log2 fold change (pictilisib),log2 fold change (crizotinib),log2 fold change [1],log2 fold change (duvelisib),log2 fold change (gandotinib),log2 fold change (tozasertib),log2 fold change (doramapimod),log2 fold change (bafetinib),log2 fold change [2]
PDZD8 (UniProt Q8NEN9),inactive: -0.021,inactive: -0.151,inactive: -0.018,inactive: -0.035,inactive: 0.015,inactive: -0.055,inactive: -0.04,inactive: 0.022,inactive: -0.075,inactive: 0.034
PFN1 (UniProt P07737),inactive: 0.01,inactive: -0.003,inactive: 0.016,inactive: -0.006,inactive: 0.009,inactive: 0.007,inactive: -0.004,inactive: 0.007,inactive: 0,inactive: 0.007
